For at least one entry, the source does not settle the construct or the ends of the probe. For part of these data: The comparison behind a weaker result is the experiment's own reference, which may not be listed here.
Experiments:
Experiment in all cases: stopped-flow kinetics
[1] = target: hAgo2-PAZ9 (Homo sapiens) (UniProt Q9UKV8); settings: no dsRBP, only two phases, 3'-end binding to PAZ not detected; 3' dTdT on both strands (DNA); T at position 14 of guide carries label; dsRBP-siRNA: 20 mM Tris pH 7.5, 50 mM NaCl, 1 mM EDTA, 25 C; hAgo2 stopped flow: 10 mM Tris pH 7.5, 100 mM KCl, 0.5 mM MgCl2, 25 C; recombinant protein; protein details: GST; label: FAM at position 14 of guide
[2] = tested on: hAgo2-PAZ9 + hPACT (native purification); settings: hPACT restores three-step binding; 3' dTdT on both strands (DNA); T at position 14 of guide carries label; dsRBP-siRNA: 20 mM Tris pH 7.5, 50 mM NaCl, 1 mM EDTA, 25 C; hAgo2 stopped flow: 10 mM Tris pH 7.5, 100 mM KCl, 0.5 mM MgCl2, 25 C; recombinant protein; protein details: GST,His (pET41b); label: FAM at position 14 of guide
[3] = tested on: hAgo2-PAZ9 + hTRBP (native purification); settings: hTRBP restores three-step binding; 3' dTdT on both strands (DNA); T at position 14 of guide carries label; dsRBP-siRNA: 20 mM Tris pH 7.5, 50 mM NaCl, 1 mM EDTA, 25 C; hAgo2 stopped flow: 10 mM Tris pH 7.5, 100 mM KCl, 0.5 mM MgCl2, 25 C; recombinant protein; protein details: GST,His (pET41b); label: FAM at position 14 of guide

Sequences of proteins named here, by UniProt entry; tags and fusion partners are left off.
UniProt Q9UKV8, whole entry: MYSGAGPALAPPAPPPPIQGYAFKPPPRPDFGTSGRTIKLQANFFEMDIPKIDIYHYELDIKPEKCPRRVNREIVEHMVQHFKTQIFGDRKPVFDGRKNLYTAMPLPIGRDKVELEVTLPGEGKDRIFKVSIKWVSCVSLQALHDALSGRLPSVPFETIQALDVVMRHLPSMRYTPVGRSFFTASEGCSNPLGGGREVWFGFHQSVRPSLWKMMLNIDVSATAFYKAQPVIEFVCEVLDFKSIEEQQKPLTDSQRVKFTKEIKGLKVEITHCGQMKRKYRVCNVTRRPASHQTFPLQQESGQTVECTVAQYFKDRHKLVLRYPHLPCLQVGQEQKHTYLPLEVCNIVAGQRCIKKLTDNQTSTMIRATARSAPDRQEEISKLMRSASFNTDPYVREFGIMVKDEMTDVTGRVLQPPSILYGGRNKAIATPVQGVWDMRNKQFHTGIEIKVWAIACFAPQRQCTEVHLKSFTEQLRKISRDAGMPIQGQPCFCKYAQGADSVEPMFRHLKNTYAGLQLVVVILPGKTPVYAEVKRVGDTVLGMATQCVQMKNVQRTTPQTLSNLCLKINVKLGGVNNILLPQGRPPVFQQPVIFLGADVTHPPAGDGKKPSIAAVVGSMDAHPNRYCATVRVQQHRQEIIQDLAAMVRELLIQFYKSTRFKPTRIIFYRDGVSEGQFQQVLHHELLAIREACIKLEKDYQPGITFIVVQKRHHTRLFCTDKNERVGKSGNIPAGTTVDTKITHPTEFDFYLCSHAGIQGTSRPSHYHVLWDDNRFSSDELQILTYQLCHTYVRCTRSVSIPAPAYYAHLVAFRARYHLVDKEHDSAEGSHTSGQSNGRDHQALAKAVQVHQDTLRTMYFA

Sequence: UAGAGGUACGUGCTGAGGCTT / GCCUCAGCACGUACCUCUATT [as2b-FAM/s2b siRNA]
- binding result [1]: binds more weakly
- binding result [2]: binds
- binding result [3]: binds
